This note sets out measurements from doi:10.1101/158022.

Amino acid sequences for entries named in this document (tags omitted). Residues count along the entry.
UniProt P18065, residues 36-325: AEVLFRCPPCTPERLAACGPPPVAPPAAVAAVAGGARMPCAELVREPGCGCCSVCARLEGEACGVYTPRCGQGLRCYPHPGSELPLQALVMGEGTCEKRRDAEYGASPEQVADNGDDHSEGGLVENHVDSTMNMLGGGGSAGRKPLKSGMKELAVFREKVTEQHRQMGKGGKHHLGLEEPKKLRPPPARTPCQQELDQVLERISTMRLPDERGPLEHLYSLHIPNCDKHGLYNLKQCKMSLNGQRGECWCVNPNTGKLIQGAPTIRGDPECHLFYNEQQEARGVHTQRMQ
UniProt P05019, residues 49-118: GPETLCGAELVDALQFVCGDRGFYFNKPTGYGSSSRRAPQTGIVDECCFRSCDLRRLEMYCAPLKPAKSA

In this assay the target is insulin growth factor binding protein 2 (human (endogenous in plasma)) (UniProt P18065). The assay is described as follows: affinity purification with mass spectrometry.

Results are given in words; binding and its absence hold for the method and conditions named. In cells and extracts the contact can be indirect. A yes stands for co-enrichment or nearness to the bait. Other partners may have been found.

For “insulin growth factor 1 (from UniProt P05019 49-118)”, the binding entry is on record as “binds”.

B1: deoxyribose-phosphate aldolase (enzyme, UniProt Q9Y315 1-318)
chain: MSAHNRGTELDLSWISKIQVNHPAVLRRAEQIQARRTVKKEWQAAWLLKAVTFIDLTTLSGDDTSSNIQRLCYKAKYPIREDLLKALNMHDKGITTAAVCVYPARVCDAVKALKAAGCNIPVASVAAGFPAGQTHLKTRLEEIRLAVEDGATEIDVVINRSLVLTGQWEALYDEIRQFRKACGEAHLKTILATGELGTLTNVYKASMIAMMAGSDFIKTSTGKETVNATFPVAIVMLRAIRDFFWKTGNKIGFKPAGGIRSAKDSLAWLSLVKEELGDEWLKPELFRIGASTLLSDIERQIYHHVTGRYAAYHDLPMS
Regarding B1, the binding result was “binds”.
